According to US11629171B2 (POLYPHOR AG, priority 2017, dated 2023):

Test: general procedure: Fmoc solid-phase peptide synthesis; 2-chlorotrityl resin (polystyrene crosslinked with 1-5% divinylbenzene)
Details: whole synthesis, HPLC-MS

Substance	final HPLC purity [%]
PEPTIDE1{[ac].V.[Orn].Y.S.E.[D-Dab].[Hse].W.S.[tBuGly].[dE]}|PEPTIDE2{[Dab].T.[Dap].[Dab].[Dab].[dL].L.[Dab].[Dab].T}$PEPTIDE1,PEPTIDE1,3:R3-12:R2|PEPTIDE1,PEPTIDE2,6:R3-1:R1|PEPTIDE2,PEPTIDE2,4:R3-10:R2$$$V2.0	77
PEPTIDE1{[HOVal].C.V.[Dab].E.[D-Dab].[Hse].W.S.Y.C.[Throl]}|PEPTIDE2{[Dab].T.[Dab].[Dab].[Dab].[dL].L.[Dab].[Dab].T}$PEPTIDE1,PEPTIDE1,2:R3-11:R3|PEPTIDE1,PEPTIDE2,5:R3-1:R1|PEPTIDE2,PEPTIDE2,4:R3-10:R2$$$V2.0	81
PEPTIDE1{[ac].V.C.Y.[Dap].E.[D-Dab].S.W.S.[tBuGly].C.[Throl]}|PEPTIDE2{[Dab].T.[Dap].[Dab].[Dab].[dL].L.[Dab].[Dab].T}$PEPTIDE1,PEPTIDE1,3:R3-12:R3|PEPTIDE1,PEPTIDE2,6:R3-1:R1|PEPTIDE2,PEPTIDE2,4:R3-10:R2$$$V2.0	87
PEPTIDE1{[HOVal].C.Y.[Dap].E.[D-Dab].T.W.S.[tBuGly].C.[Throl]}|PEPTIDE2{[Dab].S.[Dab].[Dab].[Dab].[dL].L.[Dab].[Dab].T}$PEPTIDE1,PEPTIDE1,2:R3-11:R3|PEPTIDE1,PEPTIDE2,5:R3-1:R1|PEPTIDE2,PEPTIDE2,4:R3-10:R2$$$V2.0	95
PEPTIDE1{[HOVal].C.Y.[Dab].E.[D-Dab].[Hse].W.S.[tBuGly].C.[Throl]}|PEPTIDE2{[Dab].T.[Dab].[Dab].[Dab].[dF].L.[Dab].[Dab].T}$PEPTIDE1,PEPTIDE1,2:R3-11:R3|PEPTIDE1,PEPTIDE2,5:R3-1:R1|PEPTIDE2,PEPTIDE2,4:R3-10:R2$$$V2.0	81
PEPTIDE1{[ac].[dV].C.Y.[Dab].E.[D-Dab].[Hse].W.S.[tBuGly].C.[Throl]}|PEPTIDE2{[Dab].T.[Dab].[Dab].[Dab].[dL].L.[Dab].[Dab].T}$PEPTIDE1,PEPTIDE1,3:R3-12:R3|PEPTIDE1,PEPTIDE2,6:R3-1:R1|PEPTIDE2,PEPTIDE2,4:R3-10:R2$$$V2.0	92
PEPTIDE1{[ac].V.C.Y.[Dab].E.[D-Dab].T.W.S.[tBuGly].C.S}|PEPTIDE2{[Dab].T.[Dab].[Dab].[Dab].[dL].L.[Dab].[Dab].T}$PEPTIDE1,PEPTIDE1,3:R3-12:R3|PEPTIDE1,PEPTIDE2,6:R3-1:R1|PEPTIDE2,PEPTIDE2,4:R3-10:R2$$$V2.0	81
PEPTIDE1{V.C.Y.[Dab].E.[D-Dab].[Hse].W.[Hse].V.C.S.[am]}|PEPTIDE2{[Dab].T.[Dab].[Dab].[Dab].[dL].L.[Dab].[Dab].T}$PEPTIDE1,PEPTIDE1,2:R3-11:R3|PEPTIDE1,PEPTIDE2,5:R3-1:R1|PEPTIDE2,PEPTIDE2,4:R3-10:R2$$$V2.0	94
PEPTIDE1{[HOVal].C.Y.[Dap].E.[D-Dab].[Hse].W.S.[tBuGly].C.[Throl]}|PEPTIDE2{[Dab].T.[Dab].[Dab].[Dab].[dL].L.[Dab].[Dab].T}$PEPTIDE1,PEPTIDE1,2:R3-11:R3|PEPTIDE1,PEPTIDE2,5:R3-1:R1|PEPTIDE2,PEPTIDE2,4:R3-10:R2$$$V2.0	86
PEPTIDE1{[NMeVal].C.Y.[Dap].E.[D-Dab].[Dab].W.S.[tBuGly].C.[am]}|PEPTIDE2{[Dab].T.[Dap].[Dab].[Dab].[dL].L.[Dab].[Dab].T}$PEPTIDE1,PEPTIDE1,2:R3-11:R3|PEPTIDE1,PEPTIDE2,5:R3-1:R1|PEPTIDE2,PEPTIDE2,4:R3-10:R2$$$V2.0	88
PEPTIDE1{[ac].V.[Orn].Y.S.E.[D-Dab].[Dab].W.S.[tBuGly].[dT]}|PEPTIDE2{[Dab].T.[Dap].[Dab].[Dab].[dL].L.[Dab].[Dab].T}$PEPTIDE1,PEPTIDE1,3:R3-12:R2|PEPTIDE1,PEPTIDE2,6:R3-1:R1|PEPTIDE2,PEPTIDE2,4:R3-10:R2$$$V2.0	84
PEPTIDE1{[Hiv].C.Y.[Dab].E.[D-Dab].[Hse].W.S.[tBuGly].C.[Throl]}|PEPTIDE2{[D-Dab].[Dab].[Dab].[dL].L.[Dab].[Dab].L}$PEPTIDE1,PEPTIDE1,2:R3-11:R3|PEPTIDE1,PEPTIDE2,5:R3-1:R1|PEPTIDE2,PEPTIDE2,2:R3-8:R2$$$V2.0	85
PEPTIDE1{[HOVal].C.Y.[Dab].E.[dR].[Hse].W.S.[tBuGly].C.[Throl]}|PEPTIDE2{[Dab].T.[Dab].[Dab].[Dab].[dL].L.[Dab].[Dab].T}$PEPTIDE1,PEPTIDE1,2:R3-11:R3|PEPTIDE1,PEPTIDE2,5:R3-1:R1|PEPTIDE2,PEPTIDE2,4:R3-10:R2$$$V2.0	79
PEPTIDE1{[ac].[Dab].V.[Dap].Y.C.E.[D-Dab].S.W.C.[tBuGly].[am]}|PEPTIDE2{[Dab].T.[Dap].[Dab].[Dab].[dL].L.[Dab].[Dab].T}$PEPTIDE1,PEPTIDE1,6:R3-11:R3|PEPTIDE1,PEPTIDE2,7:R3-1:R1|PEPTIDE2,PEPTIDE2,4:R3-10:R2$$$V2.0	77
PEPTIDE1{[ac].[Nle].[Orn].Y.[Dap].E.[D-Dab].[Hse].W.S.[tBuGly].[dT]}|PEPTIDE2{[Dab].T.[Dap].[Dab].[Dab].[dL].L.[Dab].[Dab].T}$PEPTIDE1,PEPTIDE1,3:R3-12:R2|PEPTIDE1,PEPTIDE2,6:R3-1:R1|PEPTIDE2,PEPTIDE2,4:R3-10:R2$$$V2.0	82
PEPTIDE1{[ac].V.C.V.[Dab].E.[D-Dab].[Hse].W.S.Y.C.S.[am]}|PEPTIDE2{[Dab].T.[Dab].[Dab].[Dab].[dL].L.[Dab].[Dab].T}$PEPTIDE1,PEPTIDE1,3:R3-12:R3|PEPTIDE1,PEPTIDE2,6:R3-1:R1|PEPTIDE2,PEPTIDE2,4:R3-10:R2$$$V2.0	84
PEPTIDE1{[HOVal].C.Y.[Dab].E.[D-Dab].[Hse].W.S.[tBuGly].C.[Throl]}|PEPTIDE2{[Dab].T.[Dab].[Dab].[Dab].[dL].L.[Dab].[Dab].T}$PEPTIDE1,PEPTIDE1,2:R3-11:R3|PEPTIDE1,PEPTIDE2,5:R3-1:R1|PEPTIDE2,PEPTIDE2,4:R3-10:R2$$$V2.0	80
PEPTIDE1{[ac].V.[Orn].Y.S.E.[D-Dab].[Hse].W.S.[tBuGly].[dT]}|PEPTIDE2{[Dab].T.[Dap].[Dab].[Dab].[dL].L.[Dab].[Dab].T}$PEPTIDE1,PEPTIDE1,3:R3-12:R2|PEPTIDE1,PEPTIDE2,6:R3-1:R1|PEPTIDE2,PEPTIDE2,4:R3-10:R2$$$V2.0	82
PEPTIDE1{[NMeVal].C.Y.[Dab].E.[D-Dab].[Hse].W.[Hse].[tBuGly].C.S.[am]}|PEPTIDE2{[Dab].T.[Dab].[Dab].[Dab].[dL].L.[Dab].[Dab].T}$PEPTIDE1,PEPTIDE1,2:R3-11:R3|PEPTIDE1,PEPTIDE2,5:R3-1:R1|PEPTIDE2,PEPTIDE2,4:R3-10:R2$$$V2.0	84
PEPTIDE1{[ac].V.[Orn].Y.S.E.[D-Dab].[Hse].W.S.[tBuGly].[dQ]}|PEPTIDE2{[Dab].T.[Dap].[Dab].[Dab].[dL].L.[Dab].[Dab].T}$PEPTIDE1,PEPTIDE1,3:R3-12:R2|PEPTIDE1,PEPTIDE2,6:R3-1:R1|PEPTIDE2,PEPTIDE2,4:R3-10:R2$$$V2.0	76

HELM strings list residues between dots; [ac] is acetyl, [am] amide, other brackets name non-standard units.
